Among all 320,000 compounds or so, about 22,000 (6.9%) were called active. The inconclusive results got no clear call from the source; some entries with a clear call stand among them for comparison. Calls follow the shape of the dose curve; as a rule, active = well fitted inhibition curve with a large enough effect; inconclusive = small, poorly fitted or top-dose-only effect, or another doubt; inactive = no such curve, though single readings can be large or run the other way. Potencies of inconclusive entries are doubtful fits and often do not repeat.
Test: Primary qHTS for delayed death inhibitors of the malarial parasite plastid, 96 hour incubation
Details: P. falciparum luciferase reporter growth; series mostly up to 28.7 µM; activity change, negative = inhibition: at the top concentration
In short: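 Two parasite generations (96 h, 37 C, 5% CO2) of compound exposure in infected erythrocytes (0.05% parasitemia, 2% hematocrit). Luciferase-reporter P. falciparum; decreased luminescence indicates inhibited growth, aimed at apicoplast-acting delayed death.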
% is scaled to controls: 0 for no effect and ±100 for the full control effect; potency is read from the fitted curve at half-maximal effect.

Compound | activity change, negative = inhibition | Potency
CC(=O)N1CCCc2cc(S(=O)(=O)NC(C(=O)NCc3ccc(C)cc3)C(C)C)ccc21 (stereo not given) | inactive: 22.2% | –
CCN(CC)c1ccc(/C=N/NC(=O)Cc2cccs2)c(O)c1 | – | inconclusive: 10.4 µM [inhibitor, single point]
Cc1ccc(NC(=O)CN(C)C(=O)c2cc(S(=O)(=O)N(C)C)ccc2N2CCCC2)cc1 | – | inconclusive: 8.28 µM [inhibitor, partial curve]
CCOC(=O)C1=C(C)NC(=S)NC1/C=C/c1ccccc1 (stereo not given) | – | inconclusive: 9.28 µM [inhibitor, partial curve, poor fit]
COc1ccc(N2CCN(C(=O)COC(=O)c3ccc(CSC)o3)CC2)cc1 | – | inconclusive: 8.28 µM [inhibitor, partial curve]
COc1ccc(-c2csc(NC(=O)CCCc3nc4ccccc4c(=O)[nH]3)n2)cc1OC | – | inconclusive: 20.8 µM [inhibitor, single point]
CC(C)(C)c1cc[n+](C2=C([O-])c3ccccc3C(=O)/C2=N\S(=O)(=O)c2ccccc2)cc1 | – | active: 4.15 µM
Cc1cc(Cl)ccc1OCC(=O)Nc1cccc(S(=O)(=O)N2CCCC2)c1 | – | inconclusive: 14.7 µM [inhibitor, single point]
Cc1cc(C)n(C(C)CNS(=O)(=O)c2ccc(C)c(C)c2)n1 (stereo not given) | inactive: 13.4% | –
CC(C)(C)c1ccc(OCC(=O)N/N=C/c2ccsc2)cc1 | inactive: -35.9% | –
Cc1ccc(N(CC(=O)N2CCN(c3ccc(F)cc3)CC2)S(=O)(=O)c2c(C)nn(C)c2C)cc1 | – | inconclusive: 8.28 µM [inhibitor, partial curve]
COC(=O)c1c(C)oc(C)c1S(=O)(=O)Nc1ccc(C(C)C)cc1 | inactive: -25.7% | –
CCCc1ccc(OCc2ccc(C(=O)N3CCN(c4ccccn4)CC3)o2)c(OC)c1 | inactive: -1.49% | –
Cc1cc(Oc2ccc(C(F)(F)F)cc2[N+](=O)[O-])c2c3c(c(=O)oc2c1)CCCC3 | – | inconclusive: 11.7 µM [inhibitor, single point]
O=C(O)CC12CC3CC(C1)CC(n1ncc(NCc4ccco4)c(Cl)c1=O)(C3)C2 | inactive: 1.68% | –
CC(C)CCN(CCC(C)C)CC(O)Cn1c2ccccc2c(=O)c2ccccc21 (stereo not given) | – | inconclusive: 2.62 µM [inhibitor, full curve, poor fit]
O=C(c1cc(Cl)cc(Cl)c1)N1CCC(=O)N(C(COCc2ccccc2)Cc2ccccc2)CC1 (stereo not given) | – | inconclusive: 11.7 µM [inhibitor, single point]
COC(=O)C1=C(C)C(c2ccc(OC)cc2)NC(=O)N1 (stereo not given) | – | inconclusive: 0.738 µM [inhibitor, partial curve, poor fit]
O=C(/C=C/c1ccccc1)NNC(=O)c1cccnc1 | inactive: 14.9% | –
Nc1nc2ccc([N+](=O)[O-])c(N)c2s1 | – | inconclusive: 14.7 µM [inhibitor, partial curve, poor fit]
COc1ccc(CSc2nc3nc(C)cc(C)n3n2)cc1F | – | inconclusive: 2.33 µM [inhibitor, full curve, poor fit]
CCc1cccc(CC)c1-n1c(SCn2nnc3ccccc3c2=O)nnc1-c1cccnc1 | – | active: 4.15 µM
O=C(Nc1ccc(N2CCN(C(=O)c3cccs3)CC2)cc1)c1cccnc1 | – | active: 2.94 µM

Compound | activity change, negative = inhibition | Potency
CC(C)C[C@H](NC(=O)N1CCn2c1nc1ccccc12)C(=O)N1CCCCC1 | – | inconclusive: 13.1 µM [inhibitor, single point]
CC(C)Nc1nc(NC(C)C)nc(N(C#N)C(C)C(=O)N(C)C)n1 (stereo not given) | – | active: 5.22 µM
CCCN(CCC)C(C(=O)Nc1cccc(OC)c1)c1ccccc1 (stereo not given) | – | active: 13.1 µM
O=C(c1ccc(C(F)(F)F)n(Cc2ccc(Cl)cc2)c1=O)N1CCOCC1 | – | inconclusive: 9.28 µM [inhibitor, single point]
Nc1nc(Cl)cc(N2CCC(c3cc(-c4ccc(Cl)cc4Cl)n[nH]3)CC2)n1 | – | inconclusive: 18.5 µM [inhibitor, single point]
Cc1ccc(C(=O)O)cc1NC(=S)NC(=O)c1ccc(COc2ccccc2)cc1 | inactive: 24.3% | –
COc1ccc(NC(=O)CN2CCN(c3ccc(C)cc3C)CC2)cc1 | – | inconclusive: 8.28 µM [inhibitor, partial curve, poor fit]
COc1ccc([C@H]2C=C3CN(C(=O)OC(C)(C)C)S(=O)(=O)[C@H]3C[C@H]2OC(=O)c2cccs2)cc1 | inactive: -2.39% | –
COC(=O)CCC(=O)c1oc2ccccc2c1NC(=O)CCCN1C(=O)c2ccccc2C1=O | – | active: 9.28 µM
O=C(O)C1=C(CSc2nnnn2CS(=O)(=O)O)CS[C@@H]2[C@H](NC(=O)[C@H](O)c3ccccc3)C(=O)N12 | inactive: 4.16% | –
c1coc(CNCc2cccs2)c1 | – | active: 9.28 µM
Cc1nc2c(-c3ccc(F)cc3)c(C)nn2c(C)c1CCC(=O)N1CCOCC1 | – | inconclusive: 1.31 µM [inhibitor, full curve]
Cc1cc(C(=O)N/N=C/c2ccc(-c3ccc([N+](=O)[O-])cc3C)o2)n[nH]1 | – | inconclusive: 7.38 µM [inhibitor, partial curve, poor fit]
CCN(CC)S(=O)(=O)c1cccc(C(=O)Nc2ccc(Cl)cn2)c1 | inactive: 17.2% | –
COc1cc(C2C(C#N)=C(N)Oc3c2oc(CO)cc3=O)ccc1OC(C)C (stereo not given) | – | inconclusive: 14.7 µM [inhibitor, single point]
COc1cccc(NC(=O)CN(C)C(=O)c2ccc(NC3CC3)c([N+](=O)[O-])c2)c1 | – | inconclusive: 9.28 µM [inhibitor, partial curve]
COc1ccc(NC(=S)N2c3ccccc3CC2C)cc1OC (stereo not given) | inactive: -5.95% | –
COc1ccc(C(=O)CN2CCCCC2)cc1 | inactive: 16.7% | –
O=C(O)c1cc(S(=O)(=O)N(Cc2ccccc2)c2cccc(C(F)(F)F)c2)ccc1Cl | inactive: -25.6% | –
COc1ccc(Cn2cnc3c(NS(C)(=O)=O)c(C)c(C)cc32)cc1 | – | inconclusive: 10.4 µM [inhibitor, single point]
C/C(=N\NC(=O)c1cc2c(s1)CCC(C)C2)c1ccncc1 (stereo not given) | – | active: 9.28 µM
Cc1ccc(S(=O)(=O)c2cc3c(=O)n4ccccc4nc3n(Cc3ccco3)c2=N)cc1C | – | active: 11.7 µM

Reference: PubChem BioAssay AID504834 (National Center for Advancing Translational Sciences (NCATS), 2011)
